The text below walks through data of paper PMC10759634.

Amino acid sequences for entries named in this document (tags omitted). A change or cut given only in a name is not applied to a line headed by its entry. Chains listed by the source or under a name are the forms on record and can include a tag or linker.
Myc-G9a WT (Q9Z148-2, form named): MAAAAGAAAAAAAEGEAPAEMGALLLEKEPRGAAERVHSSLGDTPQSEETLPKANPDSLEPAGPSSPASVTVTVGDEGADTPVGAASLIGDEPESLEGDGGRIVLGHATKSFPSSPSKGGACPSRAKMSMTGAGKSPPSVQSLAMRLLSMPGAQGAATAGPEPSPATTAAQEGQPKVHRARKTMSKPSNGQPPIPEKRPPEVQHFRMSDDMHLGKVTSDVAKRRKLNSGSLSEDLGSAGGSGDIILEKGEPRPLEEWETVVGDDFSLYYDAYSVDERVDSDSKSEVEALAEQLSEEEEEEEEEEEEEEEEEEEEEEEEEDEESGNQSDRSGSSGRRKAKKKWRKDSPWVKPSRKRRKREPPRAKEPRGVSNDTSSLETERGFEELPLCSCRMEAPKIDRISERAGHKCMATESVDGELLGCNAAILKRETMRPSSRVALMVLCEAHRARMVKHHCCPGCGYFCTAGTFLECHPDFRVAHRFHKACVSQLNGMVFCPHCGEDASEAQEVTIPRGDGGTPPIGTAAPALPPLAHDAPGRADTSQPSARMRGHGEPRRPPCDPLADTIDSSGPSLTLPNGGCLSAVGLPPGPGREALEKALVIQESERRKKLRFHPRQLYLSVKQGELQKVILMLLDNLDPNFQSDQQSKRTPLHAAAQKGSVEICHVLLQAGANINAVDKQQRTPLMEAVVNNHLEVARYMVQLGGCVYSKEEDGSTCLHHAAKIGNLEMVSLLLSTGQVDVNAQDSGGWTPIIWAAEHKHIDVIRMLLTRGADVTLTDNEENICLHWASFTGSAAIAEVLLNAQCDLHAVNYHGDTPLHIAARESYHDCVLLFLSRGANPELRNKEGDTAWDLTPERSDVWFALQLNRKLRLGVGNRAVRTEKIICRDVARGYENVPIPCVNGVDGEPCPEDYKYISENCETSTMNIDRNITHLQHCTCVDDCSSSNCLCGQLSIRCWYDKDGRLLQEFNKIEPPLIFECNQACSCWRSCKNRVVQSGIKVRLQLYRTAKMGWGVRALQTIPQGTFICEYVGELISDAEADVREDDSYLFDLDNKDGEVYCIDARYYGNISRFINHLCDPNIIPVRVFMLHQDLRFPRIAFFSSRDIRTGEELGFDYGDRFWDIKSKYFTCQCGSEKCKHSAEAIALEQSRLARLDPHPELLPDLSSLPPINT

Results are given in words; binding and its absence hold for the method and conditions named. Binding seen in cells or lysates may run through a third protein. For part of these data: Binding calls can cover weak binding; strength is not graded here. For part of these data: Tags and fused reporters may be left off the sequences shown.

Assay [1] concerns the target T1, Flag-mPrdm12 WT (mouse) (UniProt A2AJ77).
T1 sequence: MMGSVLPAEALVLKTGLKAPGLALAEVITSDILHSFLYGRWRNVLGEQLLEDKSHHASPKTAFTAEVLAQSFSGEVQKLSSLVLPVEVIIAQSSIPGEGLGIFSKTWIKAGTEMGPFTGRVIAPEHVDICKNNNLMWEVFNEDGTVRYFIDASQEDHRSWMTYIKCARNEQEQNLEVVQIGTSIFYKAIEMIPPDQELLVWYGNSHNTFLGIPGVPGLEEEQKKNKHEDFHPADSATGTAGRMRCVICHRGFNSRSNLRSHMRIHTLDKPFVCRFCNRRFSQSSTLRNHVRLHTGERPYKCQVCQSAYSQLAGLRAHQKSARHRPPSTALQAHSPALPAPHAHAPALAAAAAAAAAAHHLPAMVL
The assay is described as follows: co-IP; HEK293T cells co-transfected; lysis in IPH buffer (150 mM NaCl, 5 mM EDTA pH 8.0, 50 mM Tris pH 8.0, 1% NP-40); immunoprecipitation with anti-Flag antibodies overnight at 4°C, Protein A Sepharose; western blot with anti-Flag or anti-Myc. Background: A western blot detects proteins with antibodies after separation by electrophoresis.

In assay [2] the target is Flag-mPrdm12 mutant lacking the ZF domain (mouse) (UniProt A2AJ77). The description is as above.

With MYC-G9a ΔANK, in assay [1], the binding result is given as “binds”. Still for that read-out and setting: under MYC-G9a ΔSET stands “no binding”. With “Myc-G9a WT (from UniProt Q9Z148-2 1-1172)”, the binding result in assay [2] is on record as “no binding”.
